Test results taken from article PMC10957897, “An evolutionary mechanism to assimilate new nutrient sensors into the mTORC1 pathway” (Nature Communications, 2024).
These are yes or no findings as the source states them, for the method shown. In cells and extracts the contact can be indirect. A yes stands for co-enrichment or nearness to the bait. Other partners may have been found. Where a sequence is shown, tags or fusion partners need not be part of it.

Target: T1, FLAG-tagged Mio (D. melanogaster) (UniProt Q9VQ89)
T1 sequence: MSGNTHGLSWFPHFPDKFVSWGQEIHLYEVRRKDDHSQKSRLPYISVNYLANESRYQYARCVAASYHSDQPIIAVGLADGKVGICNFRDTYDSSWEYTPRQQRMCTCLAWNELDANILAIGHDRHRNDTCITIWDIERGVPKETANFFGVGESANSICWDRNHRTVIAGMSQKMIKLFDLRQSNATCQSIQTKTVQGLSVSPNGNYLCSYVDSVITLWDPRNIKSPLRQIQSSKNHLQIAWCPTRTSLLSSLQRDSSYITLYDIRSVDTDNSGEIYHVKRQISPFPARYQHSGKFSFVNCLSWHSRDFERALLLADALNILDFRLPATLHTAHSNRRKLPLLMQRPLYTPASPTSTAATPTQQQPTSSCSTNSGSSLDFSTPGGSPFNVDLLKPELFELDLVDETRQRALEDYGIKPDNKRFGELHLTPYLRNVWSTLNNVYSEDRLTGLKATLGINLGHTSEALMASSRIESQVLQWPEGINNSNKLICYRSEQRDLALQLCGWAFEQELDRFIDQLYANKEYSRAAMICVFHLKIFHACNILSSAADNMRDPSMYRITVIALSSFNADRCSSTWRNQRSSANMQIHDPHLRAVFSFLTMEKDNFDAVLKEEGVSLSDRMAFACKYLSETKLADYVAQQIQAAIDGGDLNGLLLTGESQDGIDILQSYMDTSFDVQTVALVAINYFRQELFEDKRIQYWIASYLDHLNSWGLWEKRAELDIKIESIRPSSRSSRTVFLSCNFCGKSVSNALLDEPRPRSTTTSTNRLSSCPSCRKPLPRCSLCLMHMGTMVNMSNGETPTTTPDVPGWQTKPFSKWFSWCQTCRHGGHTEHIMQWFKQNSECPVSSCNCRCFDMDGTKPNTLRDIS
Assay: affinity purification with mass spectrometry; anti-FLAG magnetic beads on lysates of S2R+ cells expressing FLAG-Mio (75 uM CuSO4, 4 days); 1% Triton lysis buffer, washes with 300 mM NaCl, elution with FLAG peptide; repeated without all amino acids, without leucine and with all amino acids

B1: Unmet expectations (CG11596), endogenous in S2R+ cells (protein, UniProt Q9I7X6 1-456)
chain: MSSMDCATFPMHPKMDEQLARTFVINEEEEEKHIQKVQNAFLYYGPYACQRLKRSMDYLNSLSGEDQIMLAKYRGHLECVRTCIDRNQAVIREILRGRVLYPTDEATGDPSEFDEPPPNVRHGDMDQIDIPFDEADVEPLKILKAQSTLKLIARDWSTEGALEREQSYKPIIDSIVAYFKHSDFELKDIKILVPGAGLGRLTYELACLGYSCEGNEFSYFMLIASNFVLNLCDNENKYVLYPWVHQYVNNLRREDQVAPVRFPDVCPLKNPPKGHFEIAAGDFLEVYKTPNAYNCVATCFFIDCANNVIDFIRTIYKILVPGGIWVNLGPLLYHFSDVSGQNSIEPAFEDLCIIMESVGFVIEKSRTGIRTKYAQNPSSMKQSEYQSLFWVCRKPDLFEEQRGKRKASREPHDLIVREDSEEEGEQQPERNETEEKQQLKPLATANCETEIKEQPS
binding: binds

B2: dSestrin, endogenous in S2R+ cells (protein, UniProt Q9W1K5 1-497)
chain: MYYAVDYYADMGQISQDCFAATQTGASDFDMDELDDLDQVTQVIGYHPQFHDHFLATQNFIMKGDGPLPNDYRYYLAIIAAARHQCPYLVKRYEKEFINQGGDSAWLGGLDFIPAKLRAIYDINKILAHRPWLLRKEHIERLTKGKNSWSLSEVVHAMVLLSHFHSLSSFVFSCGLTQKLDGLSSPKLKSPPAAVAALAPTILITPTSPTEPQKGKPVLAEISLNNANPDYDSQTAASSNGGAPPDSANAVADGPDATTLNGYLATAQQLPQQHGISVETLMERMKVLSQKQDECSEAELSSRFQKVEQQTAELAAVTPEAAVGVPTNLSHYVDDANFIYQDFARRGTESINTFRIQDYSWEDHGYSLVDGLYNDVGIFLDAKFRAAYNLTYCTMGGIKNVDTSKFRRAIWNYIQCIYGIRHDDYDYGEVNQLLVRPLKMFIKTACCFPERITTKDYDSVLVELQDSEKVHVNLMIMEARNQAELLYALREIMRYMT
binding: binds
